Paper PMC12411616
These are yes or no findings as the source states them, for the method shown. In cells and extracts the contact can be indirect. Some binding calls cover weakened binding; strength is not graded here.

Target: cyclophilin D (CypD), endogenous (human (endogenous in MM cell lines and HEK293)), P30405
Assay: co-IP; Fig. 4r; cells overexpressing circp53–209aa or circp53–209aa-R175H; bait and cell line not told in the text or legend
Conditions: remark: other sources report otherwise

binding: binds
B1: TRAP1, endogenous, Q12931 60-704 (protein)
chain: STQTAEDKEEPLHSIISSTESVQGSTSKHEFQAETKKLLDIVARSLYSEKEVFIRELISNASDALEKLRHKLVSDGQALPEMEIHLQTNAEKGTITIQDTGIGMTQEELVSNLGTIARSGSKAFLDALQNQAEASSKIIGQFGVGFYSAFMVADRVEVYSRSAAPGSLGYQWLSDGSGVFEIAEASGVRTGTKIIIHLKSDCKEFSSEARVRDVVTKYSNFVSFPLYLNGRRMNTLQAIWMMDPKDVREWQHEEFYRYVAQAHDKPRYTLHYKTDAPLNIRSIFYVPDMKPSMFDVSRELGSSVALYSRKVLIQTKATDILPKWLRFIRGVVDSEDIPLNLSRELLQESALIRKLRDVLQQRLIKFFIDQSKKDAEKYAKFFEDYGLFMREGIVTATEQEVKEDIAKLLRYESSALPSGQLTSLSEYASRMRAGTRNIYYLCAPNRHLAEHSPYYEAMKKKDTEVLFCFEQFDELTLLHLREFDKKKLISVETDIVVDHYKEEKFEDRSPAAECLSEKETEELMAWMRNVLGSRVTNVKVTLRLDTHPAMVTVLEMGAARHFLRMQQLAKTQEERAQLLQPTLEINPRHALIKKLNQLRASEPGLAQLLVDQIYENAMIAAGLVDDPRAMVGRLNELLVKALERH
